According to paper PMC11388069:
These are yes or no findings as the source states them, for the method shown. In cells and extracts the contact can be indirect. Here binding means that the protein was enriched with, or labelled near, the bait; the list need not be complete. Where a sequence is shown, tags or fusion partners need not be part of it.

The chains behind the UniProt entries cited, without tags or fusion partners.
UniProt P19474: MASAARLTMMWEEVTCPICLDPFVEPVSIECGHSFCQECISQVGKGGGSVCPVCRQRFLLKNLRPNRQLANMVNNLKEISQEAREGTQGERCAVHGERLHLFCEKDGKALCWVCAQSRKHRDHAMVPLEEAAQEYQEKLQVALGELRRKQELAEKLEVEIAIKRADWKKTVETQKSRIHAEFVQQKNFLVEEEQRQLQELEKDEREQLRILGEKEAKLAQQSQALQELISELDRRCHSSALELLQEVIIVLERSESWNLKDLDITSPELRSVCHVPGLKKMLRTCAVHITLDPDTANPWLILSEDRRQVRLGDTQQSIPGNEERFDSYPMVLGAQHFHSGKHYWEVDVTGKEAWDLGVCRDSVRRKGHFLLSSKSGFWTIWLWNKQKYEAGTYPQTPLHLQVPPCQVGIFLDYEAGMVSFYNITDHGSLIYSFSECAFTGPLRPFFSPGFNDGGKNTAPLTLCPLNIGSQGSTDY

Molecular target: T1, MGAT3 (N-acetylglucosaminyltransferase MGAT3) (human (endogenous in MDA-MB-231)) (UniProt Q09327)
T1 sequence: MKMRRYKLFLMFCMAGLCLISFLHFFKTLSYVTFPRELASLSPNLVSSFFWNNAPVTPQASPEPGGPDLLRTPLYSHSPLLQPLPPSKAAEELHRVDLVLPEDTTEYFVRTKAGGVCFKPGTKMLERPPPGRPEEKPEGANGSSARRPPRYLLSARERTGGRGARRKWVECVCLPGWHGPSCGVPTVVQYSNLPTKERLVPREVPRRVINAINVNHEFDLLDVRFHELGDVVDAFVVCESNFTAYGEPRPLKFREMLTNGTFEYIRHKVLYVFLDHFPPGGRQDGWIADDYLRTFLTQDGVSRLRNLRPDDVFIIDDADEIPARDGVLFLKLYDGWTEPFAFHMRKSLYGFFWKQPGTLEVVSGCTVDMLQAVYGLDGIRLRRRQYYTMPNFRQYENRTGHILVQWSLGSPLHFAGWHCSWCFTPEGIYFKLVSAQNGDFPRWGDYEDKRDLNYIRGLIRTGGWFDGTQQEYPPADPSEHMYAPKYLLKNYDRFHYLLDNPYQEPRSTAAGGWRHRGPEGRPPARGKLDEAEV
Assay: affinity purification with mass spectrometry; Co-IP-MS of MGAT3 from lysates of MDA-MB-231 cells treated with/without DOX; immunoprecipitates separated by SDS-PAGE, in-gel digestion, LC-MS/MS

Which binding does the source give for “Trim21 (from UniProt P19474 1-475) (enzyme)” here?
Its binding is “binds”.
